We go through eleven compounds from PubChem BioAssay AID248 (DTP/NCI, 2004).

The test has as its system L1210 leukemia ip in BDF1 mice, survival T/C. As to the kind of experiment: NCI In Vivo Anticancer Drug Screen. Data for tumor model L1210 Leukemia (intraperitoneal) in B6D2F1 (BDF1) mice. The following applies: T/C endpoint: mean survival time, higher T/C = longer survival; for T/C: schedule: Q01DX Z (ip).
Where [1] appears, read: dose: 400.0 mg/kg/injection, schedule: Q04DX003 (ip), vehicle: Klucel (hydroxypropylcellulose) (HPC).

The list does not hold the whole screen: it gathers tests that were run many times, whatever their T/C, doses with no T/C, and many T/C values between a quarter and a half above the control. Further doses and runs are listed elsewhere. T/C is the treated group as % of the vehicle group. Some entries give survivors of the animals treated and no T/C: the source files T/C as zero there, which appears to mark a toxic dose or a test without result, not a measured value. Some survivor counts are full or nearly so, which does not show that the dose was tolerated: the source hardly ever lists a survival T/C far under the control, and the zero likely stands for such cases as well. Survivors were counted at the toxicity check, usually on the fifth day, unless a day is given; later deaths do not show. Schedules are NCI's codes, taken here to give the interval after Q, in days (D) or hours (H), and the number of doses after X. For survival time, the PubChem record calls one and a half times the control and up active, and a quarter to a half above the control has no call in these data; cut-offs in other NCI protocols can differ. Some schedule codes hold Z or #, which are not explained here.

With `CN(C)C(=S)N1C(=O)C2C3CCC(O3)C2C1=O` (stereo not given), the survivor count runs as follows: (dose: 12.5 mg/kg/injection, schedule: Q01DX009 (ip), vehicle: saline with Tween-80) 0 of 3; (dose: 25.0 mg/kg/injection, schedule: Q04DX002 (ip), vehicle: saline with Tween-80) 0 of 3; (dose: 100.0 mg/kg/injection, schedule: Q04DX002 (ip), vehicle: saline with Tween-80) 0 of 3; (dose: 200.0 mg/kg/injection, schedule: Q04DX002 (ip), vehicle: saline with Tween-80) 0 of 3; (dose: 400.0 mg/kg/injection, schedule: Q04DX002 (ip), vehicle: saline with Tween-80) 0 of 3.
In the case of `CCOC(=O)Sc1ncnc2nc[nH]c12`, the T/C is 147 % of control (dose: 20.0 mg/kg/injection, vehicle: carboxymethylcellulose (CMC)); 147 % of control (dose: 40.0 mg/kg/injection, vehicle: carboxymethylcellulose (CMC)); 147 % of control (dose: 80.0 mg/kg/injection, vehicle: carboxymethylcellulose (CMC)).
With `CCOC(=O)N1c2ccc(Cl)cc2C=CC1C#N` (stereo not given), the survivor count (dose: 400.0 mg/kg/injection, schedule: Q01DX009 (ip), vehicle: gum acacia) is on record as 5 of 6.
`O=C(O)CCCOc1cc(Cl)c(Cl)cc1Cl`: the survivor count is, setting by setting: (dose: 200.0 mg/kg/injection, schedule: Q01DX001 (ip), vehicle: carboxymethylcellulose (CMC)) 4 of 4; (dose: 400.0 mg/kg/injection, schedule: Q01DX001 (ip), vehicle: carboxymethylcellulose (CMC)) 4 of 4.
`O=Cc1ccccc1B(O)O`: the survivor count under setting [1] is reported as 3 of 6.
For the compound `O=C(O)C(O)C(O)C(O)C(O)C(=O)O` (stereo not given), the survivor count (dose: 600.0 mg/kg/injection, schedule: Q01DX001 (ip), vehicle: saline) is 6 of 6.
For `O=c1c2ccccc2[nH]c2ccccc12`, the survivor count (dose: 100.0 mg/kg/injection, schedule: Q04DX003 (ip), vehicle: Klucel (hydroxypropylcellulose) (HPC)) is 1 of 6.
Turning to `COC(=O)C1CC2c3[nH]c4ccccc4c3CCN2C1` (stereo not given), under setting [1], the survivor count is 6 of 6.
For `CN1CCc2[nH]c3ccccc3c2C1`, the survivor count (dose: 300.0 mg/kg/injection, schedule: Q04DX003 (ip), vehicle: Klucel (hydroxypropylcellulose) (HPC)) is reported as 0 of 6.
`O=P(Oc1ccccc1)(Oc1ccccc1)C(Nc1ccccc1)c1ccccc1` (stereo not given): the survivor count (dose: 100.0 mg/kg/injection, schedule: Q04DX003 (ip), vehicle: saline with Tween-80) is 6 of 6 and the survivor count (dose: 200.0 mg/kg/injection, schedule: Q04DX003 (ip), vehicle: saline with Tween-80) was 6 of 6.
Turning to `CC(=O)c1ccc[n+](Cc2ccc([N+](=O)[O-])cc2)c1`, the survivor count is listed as 0 of 6 (dose: 200.0 mg/kg/injection, schedule: Q04DX003 (ip), vehicle: saline sonified) and 0 of 6 (dose: 400.0 mg/kg/injection, schedule: Q04DX003 (ip), vehicle: saline sonified).
